Some entries share one result that the patent states for a list of compounds.
Test: Inhibition of calcium sulfate (gypsum) scaling, conductivity measurements
Conditions: screening by visual inspection, same conditions as PZA 6
Procedure: The concentration of reject brine (i.e., concentrated brine (CB)) is denoted as 1 CB.
The evaluation of the newly developed scale inhibitor PZA 6 was performed in 3 CB solutions supersaturated with respect to CaSO4 as confirmed from solubility data of CaSO4. To a solution of 6 CB calcium chloride (60 mL) containing PZA 6 (40 ppm i.e. 40 mg/L) at 40° C.±1° C. was added quickly a preheated (40° C.) solution of 6 CB sodium sulfate (60 mL). The resultant 3 CB solution containing 20 ppm of PZA 6 was stirred at 300 rpm using a magnetic stir-bar, and conductivity measurements were made at an interval of every 10 min initially to quantify the effectiveness of the newly developed antiscalant. The drop in conductivity indicates the precipitation of CaSO4. Induction time was measured with a decrease in conductivity when precipitation started. Visual inspection was carefully done to see any turbidity arising from precipitation.
The reject brine in the Reverse Osmosis process has dissolved salts which precipitate in the event of exceeding their solubility limits. […]
A drop in conductivity is indicative of precipitation of CaSO4. […] To our satisfaction, there was no considerable change in conductivity for about 500 min, registering a 98% scale inhibition as calculated using eq 5: […]

SMILES: C=CC[N+](CC=C)(CCCP(=O)(OCC)OCC)CCCS(=O)(=O)[O-] [Monomer 4, 3-[diallyl {3-(diethoxyphosphoryl)propyl}ammonio]propane-1-sulfonate]
- Time until the system becomes cloudy: ≤ 1 h

Source: US9580521B1, “Process for making a poly(zwitterion/dianion)” (King Fahd University of Petroleum and Minerals, priority 2013, dated 2017)
